Laboratory results as given in PMC3734201.
Results are given in words; binding and its absence hold for the method and conditions named. In cells and extracts the contact can be indirect. Some entries that bind do so weakly or less than the wild type.

Chains of the proteins cited; added tags and fusions are not shown. Residues count along the entry.
UniProt B6KV60, residues 1293-1345: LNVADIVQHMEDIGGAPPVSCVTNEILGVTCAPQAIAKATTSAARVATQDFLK
UniProt B6KAM0, residues 67-569: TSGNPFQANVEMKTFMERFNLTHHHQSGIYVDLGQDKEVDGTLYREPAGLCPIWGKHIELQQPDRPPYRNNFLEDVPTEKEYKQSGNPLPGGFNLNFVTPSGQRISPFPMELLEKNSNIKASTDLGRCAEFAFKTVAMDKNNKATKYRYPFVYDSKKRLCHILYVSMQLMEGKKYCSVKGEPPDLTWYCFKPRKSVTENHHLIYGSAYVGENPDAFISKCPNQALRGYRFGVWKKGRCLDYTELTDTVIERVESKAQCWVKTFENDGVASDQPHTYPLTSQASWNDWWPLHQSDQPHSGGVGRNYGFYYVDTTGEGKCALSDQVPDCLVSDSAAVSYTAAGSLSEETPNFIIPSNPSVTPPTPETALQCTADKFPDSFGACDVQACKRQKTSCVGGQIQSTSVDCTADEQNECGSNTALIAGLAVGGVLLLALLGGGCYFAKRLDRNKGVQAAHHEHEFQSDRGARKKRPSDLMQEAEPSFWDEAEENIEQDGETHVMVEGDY

Target: GST fusion of domain 3 of generic RON2 (amino acids 1293-1345) (Toxoplasma gondii) (UniProt B6KV60)
Assay: pull-down; Glutathione-sepharose beads prebound with 0.5 µM GST, GST-gD3 or GST-sD3 were added to cleared NP-40 lysate of tachyzoites (10 mM Tris-HCl pH 8.0, 150 mM NaCl, 1 mM EDTA, 0.1% NP-40). Rotated at room temperature for about two hours, washed three times, then immunoblotted; only the target purified

generic Apical Membrane Antigen 1 (AMA1) (from UniProt B6KAM0 67-569)
binding: binds
